{
  "source": "patent US20050014181A1",
  "about": "“Methods and compositions for the assessment of polymer assembly” (priority 2003, published 2005)",
  "system": "SMC-mediated collagen fibrillogenesis",
  "experiment": "Treatment effects on SMC-mediated collagen fibrillogenesis (FITC-labeled collagen assembly assay, fluorescence plate reader)",
  "assay_type": "cell-based, mouse",
  "set-up": "unit of the concentration uncertain",
  "conditions": "increasing concentrations (1, 5, 10 (unit uncertain))",
  "description": "In one embodiment, the assay consists of adding a solution of FITC-labeled protein to cultured cells in the presence or absence of various treatments, then returning the cells to the incubator (37° C., 5% CO2) for various periods of time. Supramolecular protein assembly can be followed in time as a gain of fluorescence using a fluorescence plate reader, or by confocal microscopy with live cells or after fixation of cells. Specifically, for the development of this assay, SMC were used that had been plated into black clear-bottomed 96-well tissue culture-treated plates (Fisher) at 10,000 cells per well in 100 µL of DMEM+10% FBS 2 days prior to performing the assay. […]\nAt the end of the assay, the culture medium was aspirated and replaced with 10% buffered formalin (Fisher) for 10 min. […] The wells subsequently were washed two times with PBS, then 100 µL of PBS were added to each well and the intensity of the fluorescence was measured with a fluorescence plate reader (CytoFluor® series 4000, PerSeptive Biosystems) using the following settings for protein assembly: ex=480 nm, em=530 nm, gain 85, and ex=360 nm, em=460 nm, gain 80 for cell nuclei.\nIn each quantitative assay, twelve wells of a 96-well plate were used for each condition. […]",
  "note": "At least one structure is not confirmed: it was looked up by name or label, or the drawing left a doubt.",
  "data": [
    {"smiles": "CC1=C(/C=C/C(C)=C/C=C/C(C)=C/C(=O)O)C(C)(C)CCC1", "note": "[retinoic acid, Retinoic acid]", "values": [
      {"measurement": "effect of treatment on SMC-assisted collagen fibrillogenesis (FIG. 5A-B)", "value": "impairs SMC-assisted collagen fibrillogenesis"}
    ]}
  ]
}
